Laboratory results taken from PubChem BioAssay AID2417 (National Center for Advancing Translational Sciences (NCATS), 2010).
The campaign covered roughly 140,000 compounds. About 4,300 (3.1%) were called active. The shares of active, inactive and inconclusive entries below differ from those in the screen.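 The calls were made as follows: active = readout at or below -70, meaning at least 70% loss of cells showing the perinucleolar compartment, a nuclear body marking cancer cells; inconclusive = readout between -30 and a set limit; inactive = the rest.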

test: High Content Assay for Compounds that inhibit the Assembly of the Perinucleolar Compartment; conditions: PC3M PTB-GFP, PNC prevalence imaging, 16 h; at 10 µM; hits give low values;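 also: plate controls were DMSO wells for no effect and camptothecin positive control wells for full effect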
How it was run: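 Compounds are pinned in duplicate onto adhered PC3M cells stably expressing GFP-tagged PTB and incubated 16 h at 37 C. Cells are then fixed, nuclei stained with Hoechst, and PNC-positive cells counted.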

Compound | activity change (PNC), negative = inhibition
O=C(CSC1=NCCS1)N1CCCCCC1 | inactive: -15.6%
Cc1cc(N2CCOCC2)nc(SCc2c(Cl)cccc2Cl)n1 | inactive: 4.81%
CCC(=O)Nc1ccc(Cl)c(NC(=O)C(C)C)c1 | inconclusive: -75.5%
CCc1nc(SCC(=O)NCc2ccc(F)cc2)c2c(=O)n(C)c(=O)n(C)c2n1 | inconclusive: -35.8%
COc1ccc2nc(N3C(=O)CC(Cc4ccc(Cl)cc4)C3=O)sc2c1 (centres undefined) | inconclusive: -51.7%
Cc1cccc(NC(=O)c2cccnc2)c1 | inconclusive: -53.3%
CCCCNC(=O)CNC(=S)N(Cc1ccccc1)Cc1cccnc1 | inconclusive: -49.9%
CC(=O)Nc1nnc(SCC(=O)N2CCN(Cc3ccccc3)CC2)s1 | inconclusive: -44.9%
O=c1cc(O)n(-c2ccccc2)c(=S)[nH]1 | active: -100%
Oc1c(C(c2cccc(F)c2)N2CCN(Cc3ccccc3)CC2)sc2ncnn12 (centres undefined) | inconclusive: -32%
CC1(C)CC(C(CC(=O)Nc2nccs2)c2ccccc2)CCO1 (centres undefined) | inactive: 5.9%
O=C(NCc1cccc(Cl)c1)c1cccnc1 | inactive: 2.86%
Cc1ccc(C(NC(=O)N2CCOCC2)C(Cl)(Cl)Cl)cc1F (centres undefined) | inconclusive: -48.5%
O=C(NC1CCCCC1)NC1CC2CCC(C1)N2C(=O)NC1CCCCC1 (centres undefined) | inconclusive: -46.8%
CCNc1ccc(Br)cc(C(=O)/C=C/c2ccc(Cl)cc2Cl)c1=O | active: -100%
COC(=O)c1cccc(N2C(=O)C3CC=CCC3C2=O)c1 (centres undefined) | inconclusive: -35.8%
COc1ccc(NC(=O)c2ocnc2C)cc1OC | inconclusive: -49.9%
CCOC(=O)N1CCN(C(=S)Nc2cc(OC)c(OC)cc2C(=O)OC)CC1 | inactive: 97.9%
Cc1cc2oc(=O)cc(CN3CCCCC3C)c2c(C)c1Cl (centres undefined) | inconclusive: -58.8%
Cc1cccc(-n2c(=O)[nH]c3c(C(N)=O)nc(C(C)C)nc32)c1 | active: -100%
COC(=O)c1cc(C)sc1NC(=O)CCCC(=O)O | active: -119%
Cn1nc(-c2ccc(N3CCCCC3)c(NC(=O)c3ccco3)c2)c2ccccc2c1=O | inconclusive: -48.8%
CN(c1ccccc1)c1cc(=O)[nH]c(=O)[nH]1 | inconclusive: -39%
N#CCC(=O)NC(=O)NCC1CC1 | inconclusive: -67.4%

Ordered by SMILES length (smallest number first): part of the list above
Compound | activity change (PNC), negative = inhibition
CCC(=O)Nc1ccc(Cl)c(NC(=O)C(C)C)c1 | inconclusive: -75.5%
Cc1cc2oc(=O)cc(CN3CCCCC3C)c2c(C)c1Cl (centres undefined) | inconclusive: -58.8%
CCOC(=O)N1CCN(C(=S)Nc2cc(OC)c(OC)cc2C(=O)OC)CC1 | inactive: 97.9%

Continued:

Compound | activity change (PNC), negative = inhibition
COc1ccc(OC)c(CNC(=O)C2CCCN(c3nc4ccccc4o3)C2)c1 (centres undefined) | inconclusive: -79.9%
CSc1oc(-c2ccco2)nc1S(=O)(=O)c1ccc(F)cc1 | inconclusive: -42.4%
COc1ccc(NC(=O)CSc2ncn[nH]2)c([N+](=O)[O-])c1 | inconclusive: -54%
COc1ccc(-c2noc(CN3CCOCC3)n2)cc1OC | inactive: 25.2%
Cc1ccc(S(=O)(=O)N/N=C\c2ccc([N+](=O)[O-])o2)cc1 | active: -112%
COC(=O)COC(=O)c1ccc(-n2nnnc2SC)cc1 | inactive: -6.88%
COc1ccc(NC(=O)COC(=O)c2ccc(NS(=O)(=O)/C=C/c3ccccc3)cc2)cc1 | active: -91.4%
CCOC(=O)c1cccnc1NC(=O)c1ccccc1 | inactive: -25%
COC(=O)c1c(O)cc(C(C)(C)C)n(-c2ccccc2)c1=O | inconclusive: -30.8%
CCc1ccc(OCC(=O)Nc2cccc3c2CCCC3)cc1 | inactive: 86%
Cc1cc(C)cc(NC(=O)C2CCCN(c3nccc(C)n3)C2)c1 (centres undefined) | inconclusive: -46%
Nn1c(-c2cccs2)nc2sc3c(c2c1=O)CCCC3 | inactive: 11.8%
Cc1c(CCC(=O)O)c(=O)n2c([nH]c3ccccc32)c1C#N | inactive: 1.87%
COc1ccc(C(=O)NCC(=O)Nc2ccccc2)cc1OC | inconclusive: -51.8%
Cc1cccc(NC(=O)c2cc(NC(=O)c3ccco3)ccc2Cl)n1 | active: -110%
CC(Oc1ccccc1Cl)C(=O)/C=C/N(C)C (centres undefined) | inactive: -15.8%
CCN(CC(=O)NCc1ccc(F)cc1)CC(O)COCc1cccc(OC)c1 (centres undefined) | inconclusive: -53%
O=C(O)Cn1c(CC(=O)N2CCCC2)nc2ccccc21 | inconclusive: -60.9%
CCN1CCN(c2nc3c(C)cccn3c(=O)c2/C=C(\C#N)S(=O)(=O)c2ccccc2)CC1 | inconclusive: -47.9%
N#CC1=C(SCc2ccc(C#N)cc2)N=C(N)C(c2nc(-c3ccccc3)cs2)C12CCCCC2 (centres undefined) | active: -112%
CCOP(=O)(OCC)c1nc(/C=C/c2ccccc2)oc1NCc1ccccc1 | inconclusive: -38%
CCNC(=O)c1ccc(NS(=O)(=O)c2ccccc2)cc1 | inconclusive: -43%
O=C(c1cccc([N+](=O)[O-])c1)N1CCCN(C(=O)c2cccc([N+](=O)[O-])c2)CC1 | inconclusive: -38.7%
COc1ccc(CNc2nc(-c3ccccc3)nn2C(=O)c2cccs2)cc1 | inactive: 29.1%

Compound | activity change (PNC), negative = inhibition
CCOc1nnnc2c1sc1nc(N3CCOCC3)c3c(c12)CCCC3 | inactive: 32.2%
CCOc1ccc2[nH]c(=O)c(C(c3nnnn3CC3CCCO3)N3CCc4ccccc4C3)cc2c1 (centres undefined) | inactive: -26.1%
COc1ccc(-c2cc(C(=O)N3CCCCC3)no2)cc1OC | inconclusive: -44.1%
COC(=O)C1=C(C)N(C)C(C)=C(C(=O)OC)C1c1ccsc1 | inconclusive: -59.1%
COc1ccccc1CNC(=O)CSc1nc(-c2ccccc2)cn1N | inconclusive: -55.1%
COc1cc(OC)c(NC(=O)CCc2ccccc2)cc1Cl | inactive: -29.9%
Cc1c(=O)n(OCc2ccccc2)c2ccccc2[n+]1[O-] | inactive: 4.81%
Cc1ccc(N2CC(C(=O)Nc3ccncc3)CC2=O)cc1 (centres undefined) | inconclusive: -37.5%
COc1cc2c(cc1OC)C(c1cccc(OC)c1OC)CC(=O)N2 (centres undefined) | inconclusive: -54.8%
O=C(COC(=O)c1ccc(N2CCOCC2)c([N+](=O)[O-])c1)Nc1ccc2c(c1)OCO2 | inactive: -23.2%
O=[N+]([O-])c1ccc(/C=C/C2=NN(c3ccccc3)C(c3ccco3)C2)cc1 (centres undefined) | inconclusive: -33.1%
Cc1nnc(N2C(=O)C(O)=C(C(=O)c3ccco3)C2c2ccc(C(C)(C)C)cc2)s1 (centres undefined) | active: -109%
O=C(Nc1ccccc1C(F)(F)F)c1cc(-c2ccccc2O)on1 | active: -100%
O=C1c2ccccc2C(=O)c2c1cccc2N1CCN(Cc2ccccc2)CC1 | inconclusive: -32.2%
CCSc1ncc(/C=N/Nc2ccccc2)n1C | inconclusive: -64.2%
COc1ccc2c(CC(=O)Nc3ccc(OC)c(S(=O)(=O)N4CCOCC4)c3)coc2c1 | inconclusive: -31.5%
Cc1ccc(NC(=O)/C(=C\c2cccc([N+](=O)[O-])c2)NC(=O)c2cccs2)cc1 | inconclusive: -39%
Cc1cc(C)c(NC(=O)/C(=C/c2ccccc2)c2ccccc2)c(C)c1 | inactive: -25%
Cc1cccc(NC(=O)C(NS(=O)(=O)c2ccc3c(c2)CCC(=O)N3)c2ccccc2)n1 (centres undefined) | inconclusive: -34.6%
Cc1c(Cl)c(C(=O)NNC(=S)NCc2ccco2)nn1C | inconclusive: -35.4%
O=c1c(-c2cccc3ccccc23)[n+]([O-])c2ccccc2n1O | inactive: -23.7%
COc1ccccc1Oc1coc2cc(O)ccc2c1=O | inconclusive: -36.6%
O=c1[nH]n2c(=O)c3c([nH]c2c1N=Nc1cccc(Cl)c1)CCC3 | inconclusive: -36.2%
C=CC(O)(C#CCN(CC)CC)c1ccccc1 (centres undefined) | inconclusive: -61.8%

Quoted from the listing:
CCc1nc(SCC(=O)NCc2ccc(F)cc2)c2c(=O)n(C)c(=O)n(C)c2n1 | activity change (PNC), negative = inhibition: inconclusive: -35.8%
COC(=O)c1cc(C)sc1NC(=O)CCCC(=O)O | activity change (PNC), negative = inhibition: active: -119%

Carrying on:

Compound | activity change (PNC), negative = inhibition
COc1ccccc1NS(=O)(=O)c1ccc(O)cc1 | inconclusive: -34.7%
COc1ccccc1CNC(=O)c1ccc(S(=O)(=O)N2CCCC2)cc1 | inactive: -27.8%
Cc1cc2ncn(C(=O)c3cc(-c4ccccc4)nc4ccccc34)c2cc1C | inconclusive: -72.9%
O=C(CSc1nnc(Cc2cccs2)n1-c1ccccc1)NCc1ccc2c(c1)OCO2 | inconclusive: -49.4%
CC1(C)Cc2c(ccc3ccccc23)/C(=C/C(=O)N2CCCCC2)N1 | inconclusive: -30.3%
CC1=NC(C)Cc2ccccc21 (centres undefined) | inconclusive: -39.7%
CCOC(=O)c1nnc(-c2ccc(C)cc2)nc1Sc1cccc(Cl)c1 | inconclusive: -52.1%
CCOC(=O)C1CCN(c2ncnc3c2oc2ccc(Br)cc23)CC1 | inactive: 11.1%
Cc1ccc(Cn2cnc3c(nnn3Cc3ccc(Cl)cc3)c2=O)cc1 | inactive: 64.6%
CCN(CC)c1ccc(CC(=O)NC(C)Cc2ccccc2)cc1 (centres undefined) | active: -106%
c1ccc(N2CCN(c3nc4ccccc4n4nnnc34)CC2)cc1 | inconclusive: -55.6%
CCc1cccc(OCCn2ccnc2)c1 | active: -89.7%
OC(COCc1cccs1)CN1CCN(c2ccccc2Cl)CC1 (centres undefined) | inactive: -14.8%
COC(=O)CNC(=O)c1c(-c2c(Cl)cccc2Cl)noc1C | inconclusive: -48.3%
O=C(COc1ccc(Cl)cc1)NCc1nnc2c3ccccc3c(-c3ccccc3)nn12 | active: -108%
CCOC(OCC)P(=O)(C(C)C)C(C)C | inconclusive: -70%
Cc1ccc(-n2c(SCn3nnc4ccccc4c3=O)nnc2-c2cccnc2)c(C)c1 | inactive: 5.62%
Cc1cc(NC(=O)c2cc(CC(C)C)on2)n(-c2ccccc2)n1 | inconclusive: -44.1%
Cn1c(=O)n(Cc2ccc(Cl)cc2)c2ccccc21 | inconclusive: -51.7%
O=C(NCc1ccc(Cl)cc1)c1cnccn1 | inconclusive: -46.6%
CCOC(=O)C1CCCN(C(=S)Nc2cc(C)cc(C)c2)C1 (centres undefined) | inconclusive: -35.2%
CC(=O)N1CCCc2cc(S(=O)(=O)CCC(=O)N3CCN(c4cccc(C)c4)C(C)C3)ccc21 (centres undefined) | inactive: -8.91%
